Results from the supplement of paper PMC10849652.
Some of the results follow.

The chains behind the UniProt entries cited, without tags or fusion partners. Where a name states a change or a piece, a line headed by the entry shows the natural chain unless it says otherwise.
UniProt Q8WXD5: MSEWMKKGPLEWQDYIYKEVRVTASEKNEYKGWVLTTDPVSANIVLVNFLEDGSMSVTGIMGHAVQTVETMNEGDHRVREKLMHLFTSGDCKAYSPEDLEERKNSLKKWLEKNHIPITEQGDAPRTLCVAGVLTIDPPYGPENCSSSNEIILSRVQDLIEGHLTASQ
UniProt Q05932: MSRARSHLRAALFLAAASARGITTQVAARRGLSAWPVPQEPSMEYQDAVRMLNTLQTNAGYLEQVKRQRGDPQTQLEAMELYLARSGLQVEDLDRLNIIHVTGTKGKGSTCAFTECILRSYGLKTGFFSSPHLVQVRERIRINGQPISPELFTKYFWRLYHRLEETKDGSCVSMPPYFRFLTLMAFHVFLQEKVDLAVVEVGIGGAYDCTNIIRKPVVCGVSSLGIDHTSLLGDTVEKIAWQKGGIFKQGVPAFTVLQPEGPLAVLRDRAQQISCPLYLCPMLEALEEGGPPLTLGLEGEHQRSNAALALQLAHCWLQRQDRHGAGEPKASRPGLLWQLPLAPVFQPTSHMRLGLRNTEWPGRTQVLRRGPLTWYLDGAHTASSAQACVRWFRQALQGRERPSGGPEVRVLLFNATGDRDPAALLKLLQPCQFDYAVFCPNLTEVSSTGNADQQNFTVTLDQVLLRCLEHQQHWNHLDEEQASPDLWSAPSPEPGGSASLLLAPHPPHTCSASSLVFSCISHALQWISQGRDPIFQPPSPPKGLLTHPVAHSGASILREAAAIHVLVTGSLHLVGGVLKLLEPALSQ
UniProt P48507: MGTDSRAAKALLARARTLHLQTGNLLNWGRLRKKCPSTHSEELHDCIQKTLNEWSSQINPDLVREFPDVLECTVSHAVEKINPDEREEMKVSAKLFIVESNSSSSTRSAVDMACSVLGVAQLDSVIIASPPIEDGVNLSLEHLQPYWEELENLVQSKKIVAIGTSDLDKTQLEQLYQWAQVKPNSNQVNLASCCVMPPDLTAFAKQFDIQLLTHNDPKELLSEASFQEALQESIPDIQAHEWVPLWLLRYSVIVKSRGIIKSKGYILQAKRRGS
UniProt P51570: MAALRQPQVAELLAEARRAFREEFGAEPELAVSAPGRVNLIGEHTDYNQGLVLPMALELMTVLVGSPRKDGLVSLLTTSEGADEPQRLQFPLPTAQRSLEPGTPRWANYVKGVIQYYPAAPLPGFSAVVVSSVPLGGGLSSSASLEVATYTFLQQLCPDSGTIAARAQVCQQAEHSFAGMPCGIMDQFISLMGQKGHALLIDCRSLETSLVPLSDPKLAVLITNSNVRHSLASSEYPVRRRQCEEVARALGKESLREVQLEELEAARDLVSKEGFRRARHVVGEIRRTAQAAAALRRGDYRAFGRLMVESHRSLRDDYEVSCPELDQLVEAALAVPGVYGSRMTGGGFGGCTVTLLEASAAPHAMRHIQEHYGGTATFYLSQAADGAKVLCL
UniProt Q8NB37: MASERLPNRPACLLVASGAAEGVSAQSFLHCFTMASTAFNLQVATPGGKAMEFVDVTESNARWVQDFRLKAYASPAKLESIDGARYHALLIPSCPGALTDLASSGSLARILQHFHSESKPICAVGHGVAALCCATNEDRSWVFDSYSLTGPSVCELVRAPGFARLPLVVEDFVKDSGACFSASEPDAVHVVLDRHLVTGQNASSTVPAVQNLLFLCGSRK
UniProt P54803: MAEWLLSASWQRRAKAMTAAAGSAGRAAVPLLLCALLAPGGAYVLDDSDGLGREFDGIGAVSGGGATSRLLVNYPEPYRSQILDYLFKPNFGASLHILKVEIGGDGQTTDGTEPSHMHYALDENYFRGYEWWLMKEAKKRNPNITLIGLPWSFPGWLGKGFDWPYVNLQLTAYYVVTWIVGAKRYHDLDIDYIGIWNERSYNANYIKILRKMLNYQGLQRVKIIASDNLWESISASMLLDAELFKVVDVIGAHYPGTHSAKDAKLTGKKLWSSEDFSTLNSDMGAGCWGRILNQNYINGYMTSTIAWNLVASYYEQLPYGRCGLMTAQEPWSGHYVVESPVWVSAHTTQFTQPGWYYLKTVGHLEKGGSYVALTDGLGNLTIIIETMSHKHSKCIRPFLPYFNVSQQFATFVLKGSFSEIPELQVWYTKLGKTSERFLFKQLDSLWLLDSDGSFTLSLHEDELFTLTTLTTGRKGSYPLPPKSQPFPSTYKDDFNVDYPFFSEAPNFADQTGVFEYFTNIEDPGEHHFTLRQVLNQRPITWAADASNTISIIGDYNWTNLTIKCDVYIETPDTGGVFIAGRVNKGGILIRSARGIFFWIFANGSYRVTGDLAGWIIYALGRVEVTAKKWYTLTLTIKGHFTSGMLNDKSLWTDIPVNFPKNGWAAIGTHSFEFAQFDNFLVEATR
UniProt Q96NB1: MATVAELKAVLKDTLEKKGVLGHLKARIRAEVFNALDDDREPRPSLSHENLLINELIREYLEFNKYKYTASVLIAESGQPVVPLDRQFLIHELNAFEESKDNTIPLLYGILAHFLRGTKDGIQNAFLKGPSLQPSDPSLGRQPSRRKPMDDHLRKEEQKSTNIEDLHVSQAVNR
UniProt Q8IWJ2: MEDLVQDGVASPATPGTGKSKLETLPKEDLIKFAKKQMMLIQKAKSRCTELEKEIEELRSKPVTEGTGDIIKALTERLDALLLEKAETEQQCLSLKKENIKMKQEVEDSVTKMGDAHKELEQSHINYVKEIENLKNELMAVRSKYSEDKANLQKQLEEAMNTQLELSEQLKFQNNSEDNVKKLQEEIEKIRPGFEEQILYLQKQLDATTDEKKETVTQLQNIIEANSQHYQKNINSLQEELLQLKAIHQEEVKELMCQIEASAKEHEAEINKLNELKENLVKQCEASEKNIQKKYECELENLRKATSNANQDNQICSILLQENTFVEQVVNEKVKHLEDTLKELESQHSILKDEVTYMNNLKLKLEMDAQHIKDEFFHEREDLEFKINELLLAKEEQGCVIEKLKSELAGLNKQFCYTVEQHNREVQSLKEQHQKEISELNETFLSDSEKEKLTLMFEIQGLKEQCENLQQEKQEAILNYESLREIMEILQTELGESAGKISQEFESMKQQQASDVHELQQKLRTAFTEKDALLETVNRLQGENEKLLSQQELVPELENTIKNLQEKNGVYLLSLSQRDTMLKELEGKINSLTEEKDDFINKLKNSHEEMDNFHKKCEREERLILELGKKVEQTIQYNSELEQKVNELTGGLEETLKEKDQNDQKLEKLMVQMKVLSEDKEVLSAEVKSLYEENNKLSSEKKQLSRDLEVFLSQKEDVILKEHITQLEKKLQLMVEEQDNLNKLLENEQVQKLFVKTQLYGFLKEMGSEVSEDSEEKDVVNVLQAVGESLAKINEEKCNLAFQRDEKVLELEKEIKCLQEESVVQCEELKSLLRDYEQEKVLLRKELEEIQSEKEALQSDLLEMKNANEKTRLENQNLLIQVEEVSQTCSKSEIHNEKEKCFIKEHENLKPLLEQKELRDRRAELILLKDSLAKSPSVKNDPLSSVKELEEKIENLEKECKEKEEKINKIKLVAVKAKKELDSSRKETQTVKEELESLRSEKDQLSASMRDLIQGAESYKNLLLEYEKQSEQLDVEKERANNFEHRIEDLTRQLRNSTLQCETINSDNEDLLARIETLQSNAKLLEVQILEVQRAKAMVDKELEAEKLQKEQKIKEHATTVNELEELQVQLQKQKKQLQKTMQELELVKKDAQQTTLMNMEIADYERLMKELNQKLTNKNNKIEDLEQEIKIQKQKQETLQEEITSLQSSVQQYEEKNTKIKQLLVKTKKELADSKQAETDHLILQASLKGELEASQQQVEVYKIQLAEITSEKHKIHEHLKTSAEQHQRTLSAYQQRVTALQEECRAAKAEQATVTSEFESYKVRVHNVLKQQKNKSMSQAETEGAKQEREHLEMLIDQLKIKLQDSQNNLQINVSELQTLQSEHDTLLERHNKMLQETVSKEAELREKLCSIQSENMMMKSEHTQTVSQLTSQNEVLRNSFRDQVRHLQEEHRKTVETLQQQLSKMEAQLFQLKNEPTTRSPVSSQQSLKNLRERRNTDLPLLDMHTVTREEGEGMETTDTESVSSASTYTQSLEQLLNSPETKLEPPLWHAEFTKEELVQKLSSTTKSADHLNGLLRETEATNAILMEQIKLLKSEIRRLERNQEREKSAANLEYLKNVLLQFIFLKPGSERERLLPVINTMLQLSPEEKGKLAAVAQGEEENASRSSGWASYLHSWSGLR
UniProt P0CL80: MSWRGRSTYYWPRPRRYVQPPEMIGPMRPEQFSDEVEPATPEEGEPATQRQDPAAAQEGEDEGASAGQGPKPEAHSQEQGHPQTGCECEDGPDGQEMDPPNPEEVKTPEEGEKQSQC
UniProt Q92538, whole entry, looked up: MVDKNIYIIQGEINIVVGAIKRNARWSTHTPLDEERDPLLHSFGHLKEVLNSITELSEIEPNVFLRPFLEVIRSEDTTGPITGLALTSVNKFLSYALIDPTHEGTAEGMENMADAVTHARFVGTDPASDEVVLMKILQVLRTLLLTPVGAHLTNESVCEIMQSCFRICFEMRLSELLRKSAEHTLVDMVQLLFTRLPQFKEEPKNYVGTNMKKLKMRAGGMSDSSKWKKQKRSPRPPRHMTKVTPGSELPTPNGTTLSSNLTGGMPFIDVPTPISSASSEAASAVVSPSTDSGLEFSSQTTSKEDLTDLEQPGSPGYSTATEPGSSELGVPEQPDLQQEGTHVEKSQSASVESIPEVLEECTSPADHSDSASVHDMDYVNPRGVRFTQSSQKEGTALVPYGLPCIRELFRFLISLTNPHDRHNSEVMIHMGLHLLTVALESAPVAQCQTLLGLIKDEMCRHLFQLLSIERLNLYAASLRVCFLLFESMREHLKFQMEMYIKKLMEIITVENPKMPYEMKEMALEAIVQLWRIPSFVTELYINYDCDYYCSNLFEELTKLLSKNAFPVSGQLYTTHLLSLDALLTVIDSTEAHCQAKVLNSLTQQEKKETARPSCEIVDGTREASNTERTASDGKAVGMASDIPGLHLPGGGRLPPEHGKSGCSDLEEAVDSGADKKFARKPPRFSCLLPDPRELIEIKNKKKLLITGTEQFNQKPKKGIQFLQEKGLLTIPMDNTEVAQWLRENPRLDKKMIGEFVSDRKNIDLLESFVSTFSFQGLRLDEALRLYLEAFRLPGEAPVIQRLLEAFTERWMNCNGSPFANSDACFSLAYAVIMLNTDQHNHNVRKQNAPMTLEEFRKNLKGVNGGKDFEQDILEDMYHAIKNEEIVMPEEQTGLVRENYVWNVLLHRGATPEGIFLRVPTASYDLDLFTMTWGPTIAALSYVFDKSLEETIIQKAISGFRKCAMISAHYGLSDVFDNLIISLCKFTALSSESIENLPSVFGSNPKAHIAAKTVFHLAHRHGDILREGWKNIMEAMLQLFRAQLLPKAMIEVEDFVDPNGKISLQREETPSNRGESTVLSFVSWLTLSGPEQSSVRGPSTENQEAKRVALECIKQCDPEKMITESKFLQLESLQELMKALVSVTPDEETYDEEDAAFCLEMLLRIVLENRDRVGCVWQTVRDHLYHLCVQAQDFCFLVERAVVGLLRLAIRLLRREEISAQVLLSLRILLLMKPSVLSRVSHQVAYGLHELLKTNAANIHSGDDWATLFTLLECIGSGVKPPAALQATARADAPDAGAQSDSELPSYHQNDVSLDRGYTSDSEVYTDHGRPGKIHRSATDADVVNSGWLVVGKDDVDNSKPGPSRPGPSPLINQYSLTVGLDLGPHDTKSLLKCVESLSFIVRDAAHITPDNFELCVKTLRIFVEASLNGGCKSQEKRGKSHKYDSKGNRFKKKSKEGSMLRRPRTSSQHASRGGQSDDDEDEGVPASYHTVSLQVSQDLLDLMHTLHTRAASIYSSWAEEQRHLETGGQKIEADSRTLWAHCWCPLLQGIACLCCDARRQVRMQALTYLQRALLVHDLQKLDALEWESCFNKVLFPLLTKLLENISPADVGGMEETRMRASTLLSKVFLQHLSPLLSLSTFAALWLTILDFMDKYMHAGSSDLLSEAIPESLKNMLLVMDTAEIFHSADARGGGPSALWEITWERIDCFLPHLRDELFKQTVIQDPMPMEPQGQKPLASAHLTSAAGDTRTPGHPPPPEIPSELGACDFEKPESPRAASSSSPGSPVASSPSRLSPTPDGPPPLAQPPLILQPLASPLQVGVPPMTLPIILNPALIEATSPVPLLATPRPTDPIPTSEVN

compound: Cn1cncc1[C@@](N)(c1ccc(Cl)cc1)c1ccc2c(c1)c(-c1cccc(Cl)c1)cc(=O)n2C [tipifarnib]; experiment: log2 fold change, soluble protein after heating vs DMSO (PISA); higher = thermal stabilisation; K562 cells, 10 uM, 30 min; active = over 0.2 and 3.5 SD of the protein, either way, in both replicates (recomputed)
Method in brief: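 K562 cells at 2×10^6 cells/mL were treated for 30 min with 10 μM compound, and aliquots were heated for 3 min over 48°C-58°C before pooling. Extraction used PBS with 0.5% NP-40 at 4°C, and soluble protein was the supernatant after 21,000xg for 90 min, measured by TMTpro 16plex LC-MS/MS with channel sums equalised. Thermal stability values, relative to control samples and from duplicates, are log2 fold changes.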

Q: With GALNT11 (UniProt Q8NCW6) as the target, how does the log2 fold change read?
A: Its log2 fold change is inactive: 0.102.

Q: How did the log2 fold change turn out when GEMIN6 (UniProt Q8WXD5) was run?
A: The log2 fold change was inactive: -0.002.

Q: How did the log2 fold change turn out when GALNT10 (UniProt Q86SR1) was run?
A: The log2 fold change was inactive: 0.089.

Q: Which log2 fold change does the source give for FOSL1 (UniProt P15407) here?
A: The log2 fold change was inactive: 0.168.

Q: For GALNT4 (UniProt Q8N4A0), which log2 fold change is on record?
A: The log2 fold change was inactive: 0.038.

Q: Which log2 fold change does the source give for FNTB (UniProt P49356) here?
A: The log2 fold change was active: 0.757.

Q: How did the log2 fold change turn out when FPGS (UniProt Q05932) was run?
A: The log2 fold change was inactive: 0.127.

Q: GAB2 (UniProt Q9UQC2) was tested. Which log2 fold change did it give?
A: The log2 fold change was inactive: 0.175.

Q: With FOXK1 (UniProt P85037) as the target, how does the log2 fold change read?
A: The log2 fold change was inactive: 0.008.

Q: Which log2 fold change does the source give for GAPVD1 isoform 6 (UniProt Q14C86) here?
A: The log2 fold change was inactive: -0.135.

Q: FUCA1 (UniProt P04066) was tested. Which log2 fold change did it give?
A: Its log2 fold change is inactive: -0.001.

Q: For GCSH (UniProt P23434), which log2 fold change is on record?
A: Its log2 fold change is inactive: -0.017.

Q: GCLM (UniProt P48507) was tested. Which log2 fold change did it give?
A: Its log2 fold change is inactive: -0.133.

Q: With GALK1 isoform 2 (UniProt P51570) as the target, how does the log2 fold change read?
A: The log2 fold change was inactive: -0.136.

Q: GCDH (UniProt Q92947) was tested. Which log2 fold change did it give?
A: Its log2 fold change is inactive: -0.007.

Q: GDPD1 (UniProt Q8N9F7) was tested. Which log2 fold change did it give?
A: The log2 fold change was inactive: 0.106.

Q: With GEMIN2 (UniProt O14893) as the target, how does the log2 fold change read?
A: The log2 fold change was inactive: 0.08.

Q: Which log2 fold change does the source give for GABPA (UniProt Q06546) here?
A: Its log2 fold change is inactive: -0.149.

Q: GARS1 (UniProt H7C443) was tested. Which log2 fold change did it give?
A: Its log2 fold change is inactive: 0.21.

Q: GATD1 (UniProt Q8NB37) was tested. Which log2 fold change did it give?
A: The log2 fold change was inactive: 0.029.

Q: Which log2 fold change does the source give for GHDC (UniProt Q8N2G8) here?
A: Its log2 fold change is inactive: 0.146.

Q: GGT7 (UniProt Q9UJ14) was tested. Which log2 fold change did it give?
A: Its log2 fold change is inactive: 0.001.

Q: With GALC (UniProt P54803) as the target, how does the log2 fold change read?
A: Its log2 fold change is inactive: 0.126.

Q: How did the log2 fold change turn out when GALNT1 (UniProt Q10472) was run?
A: The log2 fold change was inactive: 0.019.

Q: For GABARAPL1 isoform 2 (UniProt Q9H0R8), which log2 fold change is on record?
A: Its log2 fold change is inactive: -0.075.

Q: With GEMIN5 (UniProt Q8TEQ6) as the target, how does the log2 fold change read?
A: The log2 fold change was inactive: -0.049.

Q: Which log2 fold change does the source give for FOPNL (UniProt Q96NB1) here?
A: Its log2 fold change is inactive: 0.045.

Q: How did the log2 fold change turn out when GDI1 (UniProt P31150) was run?
A: The log2 fold change was inactive: -0.06.

Q: With GALNT2 (UniProt Q10471) as the target, how does the log2 fold change read?
A: The log2 fold change was inactive: 0.008.

Q: How did the log2 fold change turn out when GCC2 (UniProt Q8IWJ2) was run?
A: The log2 fold change was inactive: 0.051.

Q: How did the log2 fold change turn out when GATA1 (UniProt P15976) was run?
A: The log2 fold change was inactive: -0.015.

Q: With GAGE12F (UniProt P0CL80) as the target, how does the log2 fold change read?
A: Its log2 fold change is inactive: 0.053.

Q: With FUCA2 (UniProt Q9BTY2) as the target, how does the log2 fold change read?
A: The log2 fold change was inactive: 0.077.

Q: GBF1 (UniProt Q92538) was tested. Which log2 fold change did it give?
A: The log2 fold change was inactive: -0.15.
